Experimental findings from paper PMC11154705, “Spatio-temporal control of asymmetric septum positioning during sporulation in Bacillus subtilis” (The Journal of Biological Chemistry, 2024) are described below.

No constants are given. Whether binding was seen depends on the method and setting. Some entries that bind do so weakly or less than the wild type.

This assay deals with T1, DivIVA (B. subtilis) (UniProt P71021).
T1 sequence: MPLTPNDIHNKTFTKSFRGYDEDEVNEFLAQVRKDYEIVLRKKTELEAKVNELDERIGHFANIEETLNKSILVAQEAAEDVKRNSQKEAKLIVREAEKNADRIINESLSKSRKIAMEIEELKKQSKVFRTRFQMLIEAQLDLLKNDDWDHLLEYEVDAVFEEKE
Description: two-hybrid; bacterial two-hybrid (BACTH): fusions to adenylate cyclase fragments T18 and T25 cotransformed into E. coli BTH101 (delta cya); spotted on LB plates with X-Gal and 0.5 mM IPTG, 24 to 48 h at 30 °C; beta-galactosidase activity in Miller units.

B1: SpoIIE (protein, UniProt P37475 1-827)
chain: MEKAERRVNGPMAGQALEKLQSFFNRGTKLVTHHLHSLFFYKGFIYVVIGFLLGRAFILSEVLPFALPFFGAMLLIRRDKAFYAVLAVLAGALTISPKHSLLILAALLAFFVFSKVAAFITDDRVKALPIVVFFSMAAARAGFVYAQNGVFTTYDYVMAIVEAGLSFILTLIFLQSLPIFTVKKVKQSLKIEEIICFMILIASVLTGLAGLSYQGMQAEHILARYVVLSFSFIGGASIGCTVGVVTGLILGLANIGNLYQMSLLAFSGLLGGLLKEGKKAGAAIGLIVGSLLISLYGEGSAGLMTTLYESLIAVCLFLLTPQSITRKVARYIPGTVEHLQEQQQYARKIRDVTAQKVDQFSNVFHALSESFATFYQASDEQTDDSEVDLFLSKITEHSCQTCYKKNRCWVQNFDKTYDLMKQVMLETEEKEYASNRRLKKEFQQYCSKSKQVEELIEDELAHHHAHLTLKKKVQDSRRLVAEQLLGVSEVMADFSREIKREREQHFLQEEQIIEALQHFGIEIQHVEIYSLEQGNIDIEMTIPFSGHGESEKIIAPMLSDILEEQILVKAEQHSPHPNGYSHVAFGSTKSYRVSTGAAHAAKGGGLVSGDSYSMMELGARKYAAAISDGMGNGARAHFESNETIKLLEKILESGIDEKIAIKTINSILSLRTTDEIYSTLDLSIIDLQDASCKFLKVGSTPSFIKRGDQVMKVQASNLPIGIINEFDVEVVSEQLKAGDLLIMMSDGIFEGPKHVENHDLWMKRKMKGLKTNDPQEIADLLMEEVIRTRSGQIEDDMTVVVVRIDHNTPKWASIPVPAIFQNKQEIS
Turning to B1, the binding entry is “binds”.
